From patent publication US20220098591
No signal at the amounts used counts as a negative. Weaker means in comparison with the reference protein, sequence or condition of that experiment. For at least one entry, the source does not settle the construct or the ends of the probe. Whether high values mean tight binding is not given here for every scale.

Protein sequences, listed by entry. Tags and fused reporters are not part of them. Chains listed by the source or under a name are the forms on record and can include a tag or linker.
UniProt P15692, other isoform, or with tags, fused parts or gaps: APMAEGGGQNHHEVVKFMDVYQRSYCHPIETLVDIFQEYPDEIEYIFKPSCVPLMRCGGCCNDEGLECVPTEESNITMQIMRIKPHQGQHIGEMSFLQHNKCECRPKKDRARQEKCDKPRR

Molecular target: VEGF-A121 (Homo sapiens) (UniProt P15692)
Assay: competition with a labelled probe
Conditions: 5' C6NH2, 3' idT, purified recombinant protein
[1] = all G 2'-F, A,C,U 2'-OMe, variant of Aptamer 26
[2] = 2'-F G except 2'-OMe G at 22 (Aptamer 141 numbering), 2'-OMe A,C,U, SP3 spacer between parts
[3] = 2'-F G except 2'-OMe G at 39 (Aptamer 141 numbering), 2'-OMe A,C,U, SP3 spacer between parts
[4] = 2'-F G except 2'-OMe G at 22,39 (Aptamer 141 numbering), 2'-OMe A,C,U, SP3 spacer between parts
[5] = 2'-F G except 2'-OMe G at 6,22,39,42 (Aptamer 141 numbering), 2'-OMe A,C,U, SP3 spacer between parts
[6] = 2'-F G except 2'-OMe G at 6,12,22,39,42 (Aptamer 141 numbering), 2'-OMe A,C,U, SP3 spacer between parts
[7] = 2'-F G except 2'-OMe G at 6,39,42 (Aptamer 141 numbering), 2'-OMe A,C,U, SP3 spacer between parts

Sequence: AGGCCGCCUCCUCGCGGAGGGGUUUCAUUAUCCCGUUUGGCGGCUU [Aptamer 151]
- binding result [1]: binds more weakly

Sequence: AGGCCGCCUCGGCGCCGAGGGGUUUCAUUAUCCCGUUUGGCGGCUU [Aptamer 177]
- binding result [1]: binds more weakly

Sequence: AGGCCGCCUCUGCGCAGAGGGGUUUCAUUAUCCCGUUUGGCGGCUU [Aptamer 179]
- binding result [1]: binds more weakly

Sequence: AGGCCGCCUGCGCGCGCAGGGGUUUCAUUAUCCCGUUUGGCGGCUU [Aptamer 174]
- binding result [1]: binds more weakly

Sequence: AGGCCGCCUUCGCGCGAAGGGGUUUCAUUAUCCCGUUUGGCGGCUU [Aptamer 176]
- binding result [1]: binds more weakly

Sequence: AGGCCGCGUCCGCGCGGAGGGGUUUCAUUAUCCCGUUUCGCGGCUU [Aptamer 121]
- binding result [1]: binds more weakly

Sequence: AGGCCGGCUCCGCGCGGAGGGGUUUCAUUAUCCCGUUUGCCGGCUU [Aptamer 124]
- binding result [1]: binds more weakly

Sequence: AGGCCGUAUCCGCGCGGAGGGGUUUCAUUAUCCCGUUUUACGGCUU [Aptamer 135]
- binding result [1]: binds more weakly

Sequence: AGGCCGUUCCGCGCGGAGGGGUUUCAUUAUCCCGUUUAACGGCUU [Aptamer 140]
- binding result (all G 2'-F, A,C,U 2'-OMe, Sp3 joins the two parts, variant of Aptamer 26): binds more weakly

Sequence: AGGCCGUUUCCGCGCGGAGGGGUUUCAUUAUCCCGUUUAACGGCUU [Aptamer 136]
- binding result [1]: binds more weakly

Sequence: CCCGCGCGGAGGGGUUUCAUUAUCCCGUUUG [Aptamer 279]
- binding signal (fold worse than Aptamer 141) [2]: > 100

Sequence: CCCGCGCGGAGGGGUUUCAUUAUCCCGUUUG [Aptamer 280]
- binding signal (fold worse than Aptamer 141) [3]: > 100

Sequence: CCCGCGCGGAGGGGUUUCAUUAUCCCGUUUG [Aptamer 281]
- binding signal (fold worse than Aptamer 141) [4]: > 100

Sequence: CCGACCCGCGCGGAGGGGUUUCAUUAUCCCGUUUGUCGGC [Aptamer 221]
- binding result (2'-F G except 2'-OMe G at 6,42,43 (Aptamer 141 numbering), 2'-OMe A,C,U, SP3 spacer between parts): binds

Sequence: CCGACCCGCGCGGAGGGGUUUCAUUAUCCCGUUUGUCGGC [Aptamer 222]
- binding result (2'-F G except 2'-OMe G at 22,42,43 (Aptamer 141 numbering), 2'-OMe A,C,U, SP3 spacer between parts): binds

Sequence: CCGACCCGCGCGGAGGGGUUUCAUUAUCCCGUUUGUCGGC [Aptamer 223]
- binding result (2'-F G except 2'-OMe G at 39,42,43 (Aptamer 141 numbering), 2'-OMe A,C,U, SP3 spacer between parts): binds

Sequence: CCGACCCGCGCGGAGGGGUUUCAUUAUCCCGUUUGUCGGC [Aptamer 224]
- binding result (2'-F G except 2'-OMe G at 6,22,42,43 (Aptamer 141 numbering), 2'-OMe A,C,U, SP3 spacer between parts): binds

Sequence: CCGACCCGCGCGGAGGGGUUUCAUUAUCCCGUUUGUCGGC [Aptamer 225]
- binding result (2'-F G except 2'-OMe G at 6,39,42,43 (Aptamer 141 numbering), 2'-OMe A,C,U, SP3 spacer between parts): binds

Sequence: CCGACCCGCGCGGAGGGGUUUCAUUAUCCCGUUUGUCGGC [Aptamer 226]
- binding result (2'-F G except 2'-OMe G at 22,39,42,43 (Aptamer 141 numbering), 2'-OMe A,C,U, SP3 spacer between parts): binds

Sequence: CCGACCCGCGCGGAGGGGUUUCAUUAUCCCGUUUGUCGGC [Aptamer 227]
- binding result (2'-F G except 2'-OMe G at 6,22,39,42,43 (Aptamer 141 numbering), 2'-OMe A,C,U, SP3 spacer between parts): binds

Sequence: CGACCAGCGCUGAGGGGUUUCAUUAUCCCGUUUGUCG [Aptamer 293]
- binding signal (fold worse than Aptamer 141) [5]: 6

Sequence: CGACCAGCGCUGAGGGGUUUCAUUAUCCCGUUUGUCG [Aptamer 295]
- binding signal (fold worse than Aptamer 141) [6]: 12

Sequence: CGACCCGCGCGGAGGGAUAUCAUUAUCCCGUUUGUCG [Aptamer 287]
- binding result [7]: binds

Sequence: CGACCCGCGCGGAGGGAUCUCAUGAUCCCGUUUGUCG [Aptamer 297]
- binding result (2'-F G except 2'-OMe G at 6,29,39,42 (Aptamer 141 numbering), 2'-OMe A,C,U, SP3 spacer between parts): binds

Sequence: CGACCCGCGCGGAGGGAUGUCAUCAUCCCGUUUGUCG [Aptamer 296]
- binding result (2'-F G except 2'-OMe G at 6,24,39,42 (Aptamer 141 numbering), 2'-OMe A,C,U, SP3 spacer between parts): binds

Sequence: CGACCCGCGCGGAGGGAUUACAUUAUCCCGUUUGUCG [Aptamer 288]
- binding result [7]: binds

Sequence: CGACCCGCGCGGAGGGAUUUCAUAAUCCCGUUUGUCG [Aptamer 289]
- binding result [7]: binds

Sequence: CGACCCGCGCGGAGGGAUUUCAUUAUCCCGUUUGUCG [Aptamer 282]
- binding result [7]: binds

Sequence: CGACCCGCGCGGAGGGGUAUCAUUACCCCGUUUGUCG [Aptamer 290]
- binding result [5]: binds

Sequence: CGACCCGCGCGGAGGGGUAUCAUUAUCCCGUUUGUCG [Aptamer 283]
- binding result [5]: binds

Sequence: CGACCCGCGCGGAGGGGUUACAUAAUCCCGUUUGUCG [Aptamer 292]
- binding result [5]: binds

Sequence: CGACCCGCGCGGAGGGGUUACAUUAUCCCGUUUGUCG [Aptamer 284]
- binding result [5]: binds

Sequence: CGACCCGCGCGGAGGGGUUUCAUAACCCCGUUUGUCG [Aptamer 291]
- binding result [5]: binds

Sequence: CGACCCGCGCGGAGGGGUUUCAUUACCCCGUUUGUCG [Aptamer 286]
- binding result [5]: binds

Sequence: CGACCCGCGCGGAGGGGUUUCAUUAUCCCGUUUGUCG [Aptamer 228]
- binding result (2'-F G except 2'-OMe G at 6,42 (Aptamer 141 numbering), 2'-OMe A,C,U, SP3 spacer between parts): binds

Sequence: CGACCCGCGCGGAGGGGUUUCAUUAUCCCGUUUGUCG [Aptamer 229]
- binding result (2'-F G except 2'-OMe G at 22,42 (Aptamer 141 numbering), 2'-OMe A,C,U, SP3 spacer between parts): binds

Sequence: CGACCCGCGCGGAGGGGUUUCAUUAUCCCGUUUGUCG [Aptamer 230]
- binding result (2'-F G except 2'-OMe G at 39,42 (Aptamer 141 numbering), 2'-OMe A,C,U, SP3 spacer between parts): binds

Sequence: CGACCCGCGCGGAGGGGUUUCAUUAUCCCGUUUGUCG [Aptamer 231]
- binding result (2'-F G except 2'-OMe G at 6,22,42 (Aptamer 141 numbering), 2'-OMe A,C,U, SP3 spacer between parts): binds

Sequence: CGACCCGCGCGGAGGGGUUUCAUUAUCCCGUUUGUCG [Aptamer 232]
- binding result [7]: binds

Sequence: CGACCCGCGCGGAGGGGUUUCAUUAUCCCGUUUGUCG [Aptamer 233]
- binding result (2'-F G except 2'-OMe G at 22,39,42 (Aptamer 141 numbering), 2'-OMe A,C,U, SP3 spacer between parts): binds

Sequence: CGACCCGCGCGGAGGGGUUUCAUUAUCCCGUUUGUCG [Aptamer 294]
- binding result [6]: binds

Sequence: CGACCCGCGCGGAGGGGUUUCAUUAUCCCGUUUGUCG [Aptamer 298]
- binding result (2'-F G except 2'-OMe G at 6,22,39,42 (Aptamer 141 numbering), 2'-OMe A,C,U, two SP3 spacers between parts): binds more weakly

Sequence: CGACCCGCGCGGAGGGGUUUCAUUAUCCCGUUUGUCG [Aptamer 299]
- binding result (2'-F G except 2'-OMe G at 6,22,39,42 (Aptamer 141 numbering), 2'-OMe A,C,U, SP6 spacer (1,6-hexanediol) between parts): binds more weakly

Sequence: CGACCCGCGCGGAGGGGUUUCAUUAUCCCGUUUGUCG [Aptamer 300]
- binding result (2'-F G except 2'-OMe G at 6,22,39,42 (Aptamer 141 numbering), 2'-OMe A,C,U, SP9 spacer (triethyleneglycol) between parts): binds more weakly

Sequence: CGGAAUCAGUGAAUGCUUAUACAUCCG [Aptamer 7]
- functional effect of the aptamer (2'-F C and U, 2'-OMe G and A except AA at positions 4-5, AlphaLISA, no inhibition of KDR binding, dose not given here): not active

Sequence: GACCCGCGCGGAGGGGUUUCAUUAUCCCGUUUGUC [Aptamer 235]
- binding result (2'-F G except 2'-OMe G at 6 (Aptamer 141 numbering), 2'-OMe A,C,U, SP3 spacer between parts): binds

Sequence: GACCCGCGCGGAGGGGUUUCAUUAUCCCGUUUGUC [Aptamer 236]
- binding result [2]: binds

Sequence: GACCCGCGCGGAGGGGUUUCAUUAUCCCGUUUGUC [Aptamer 237]
- binding result [3]: binds

Sequence: GACCCGCGCGGAGGGGUUUCAUUAUCCCGUUUGUC [Aptamer 238]
- binding result (2'-F G except 2'-OMe G at 6,22 (Aptamer 141 numbering), 2'-OMe A,C,U, SP3 spacer between parts): binds

Sequence: GACCCGCGCGGAGGGGUUUCAUUAUCCCGUUUGUC [Aptamer 239]
- binding result (2'-F G except 2'-OMe G at 6,39 (Aptamer 141 numbering), 2'-OMe A,C,U, SP3 spacer between parts): binds

Sequence: GACCCGCGCGGAGGGGUUUCAUUAUCCCGUUUGUC [Aptamer 240]
- binding result [4]: binds

Sequence: GACCCGCGCGGAGGGGUUUCAUUAUCCCGUUUGUC [Aptamer 241]
- binding result (2'-F G except 2'-OMe G at 6,22,39 (Aptamer 141 numbering), 2'-OMe A,C,U, SP3 spacer between parts): binds

Sequence: GCCGACCCGCGCGGAGGGGUUUCAUUACCCCGUUUGUCGGC [Aptamer 213]
- binding signal (fold better than Aptamer 141) (2'-F G except 2'-OMe G at 3,42,43 (Aptamer 141 numbering), 2'-OMe A,C,U, SP3 spacer between parts): 2
